# Results reported in the supplement of paper PMC10032668.
# By UniProt entry, the sequences of proteins in these tests, tags left out.
# STAT3, P40763, UniProt P40763, whole entry: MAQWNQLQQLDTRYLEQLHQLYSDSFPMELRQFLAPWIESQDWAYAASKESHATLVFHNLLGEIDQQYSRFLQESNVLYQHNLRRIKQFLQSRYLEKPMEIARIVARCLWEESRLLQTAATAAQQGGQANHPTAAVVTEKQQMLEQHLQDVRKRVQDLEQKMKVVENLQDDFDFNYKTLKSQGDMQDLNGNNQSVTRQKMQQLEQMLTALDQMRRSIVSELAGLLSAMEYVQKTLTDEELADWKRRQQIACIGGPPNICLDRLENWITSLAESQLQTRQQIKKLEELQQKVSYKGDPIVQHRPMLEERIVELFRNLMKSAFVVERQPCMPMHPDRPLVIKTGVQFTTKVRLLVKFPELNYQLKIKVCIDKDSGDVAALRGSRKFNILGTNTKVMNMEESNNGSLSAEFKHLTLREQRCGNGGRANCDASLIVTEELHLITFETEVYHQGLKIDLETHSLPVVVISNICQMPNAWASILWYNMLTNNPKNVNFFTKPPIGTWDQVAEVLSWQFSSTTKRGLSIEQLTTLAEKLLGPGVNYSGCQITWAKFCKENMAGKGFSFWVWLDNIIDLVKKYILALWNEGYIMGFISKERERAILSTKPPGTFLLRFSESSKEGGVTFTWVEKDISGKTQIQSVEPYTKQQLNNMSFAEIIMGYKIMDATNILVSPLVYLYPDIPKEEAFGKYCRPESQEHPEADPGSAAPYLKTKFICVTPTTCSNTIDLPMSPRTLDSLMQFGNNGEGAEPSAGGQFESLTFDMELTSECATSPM
# GBF1, Q92538, UniProt Q92538, whole entry: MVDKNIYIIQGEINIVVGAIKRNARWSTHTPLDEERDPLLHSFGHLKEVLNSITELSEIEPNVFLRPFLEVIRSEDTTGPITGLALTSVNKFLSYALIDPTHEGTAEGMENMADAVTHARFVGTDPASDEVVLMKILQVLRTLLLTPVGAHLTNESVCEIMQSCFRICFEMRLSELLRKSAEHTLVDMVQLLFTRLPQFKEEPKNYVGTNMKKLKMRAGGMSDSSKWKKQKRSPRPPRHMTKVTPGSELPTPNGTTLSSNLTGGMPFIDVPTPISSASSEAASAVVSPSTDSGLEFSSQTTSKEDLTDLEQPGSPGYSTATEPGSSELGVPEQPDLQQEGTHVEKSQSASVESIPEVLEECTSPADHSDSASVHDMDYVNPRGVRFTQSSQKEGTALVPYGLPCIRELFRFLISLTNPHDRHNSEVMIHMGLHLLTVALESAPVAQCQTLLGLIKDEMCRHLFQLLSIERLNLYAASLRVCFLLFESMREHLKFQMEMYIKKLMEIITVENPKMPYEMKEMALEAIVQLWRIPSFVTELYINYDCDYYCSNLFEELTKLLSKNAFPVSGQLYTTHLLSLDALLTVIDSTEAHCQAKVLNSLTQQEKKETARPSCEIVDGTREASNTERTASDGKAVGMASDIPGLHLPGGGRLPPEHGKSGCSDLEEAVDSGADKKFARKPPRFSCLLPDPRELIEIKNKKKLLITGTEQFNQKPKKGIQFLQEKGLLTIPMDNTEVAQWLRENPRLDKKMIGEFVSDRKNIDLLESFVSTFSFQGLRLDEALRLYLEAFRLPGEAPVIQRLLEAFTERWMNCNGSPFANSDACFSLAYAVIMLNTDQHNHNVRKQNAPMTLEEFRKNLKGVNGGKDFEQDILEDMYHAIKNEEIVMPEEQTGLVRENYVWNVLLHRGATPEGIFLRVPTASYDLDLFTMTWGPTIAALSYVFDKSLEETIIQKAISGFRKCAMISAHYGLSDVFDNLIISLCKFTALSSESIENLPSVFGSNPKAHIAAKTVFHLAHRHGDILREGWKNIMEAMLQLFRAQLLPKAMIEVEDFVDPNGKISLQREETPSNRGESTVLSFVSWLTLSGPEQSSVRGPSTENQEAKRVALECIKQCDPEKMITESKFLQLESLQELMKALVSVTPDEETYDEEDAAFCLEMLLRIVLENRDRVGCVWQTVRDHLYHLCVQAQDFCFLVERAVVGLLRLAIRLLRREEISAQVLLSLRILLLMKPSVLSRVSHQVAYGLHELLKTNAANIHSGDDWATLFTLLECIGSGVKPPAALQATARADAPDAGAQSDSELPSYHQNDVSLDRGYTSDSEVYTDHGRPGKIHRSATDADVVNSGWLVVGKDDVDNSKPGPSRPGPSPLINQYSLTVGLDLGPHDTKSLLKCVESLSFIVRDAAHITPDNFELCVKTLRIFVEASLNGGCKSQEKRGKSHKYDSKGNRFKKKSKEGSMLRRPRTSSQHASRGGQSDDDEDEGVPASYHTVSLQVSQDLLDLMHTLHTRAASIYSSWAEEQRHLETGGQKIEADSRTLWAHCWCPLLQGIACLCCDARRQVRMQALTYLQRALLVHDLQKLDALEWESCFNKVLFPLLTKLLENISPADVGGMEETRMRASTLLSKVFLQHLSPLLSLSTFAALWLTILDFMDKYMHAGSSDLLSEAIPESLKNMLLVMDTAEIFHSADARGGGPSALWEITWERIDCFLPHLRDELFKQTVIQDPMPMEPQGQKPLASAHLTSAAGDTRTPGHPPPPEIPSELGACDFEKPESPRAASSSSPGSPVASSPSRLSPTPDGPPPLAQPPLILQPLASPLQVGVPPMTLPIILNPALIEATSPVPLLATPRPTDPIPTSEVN
# COX6B1, P14854, UniProt P14854, whole entry: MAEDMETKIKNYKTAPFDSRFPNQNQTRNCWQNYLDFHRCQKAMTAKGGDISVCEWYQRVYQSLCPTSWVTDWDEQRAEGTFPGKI
# This is one part of the list. The list holds hits alone, and they repeat only in part.
# B1: PVT1 (peptide)
# chain: SYSLDVHGGRRTAAG
# B2: RP11-12K22.1 (peptide)
# chain: LTTSVRKKVECGDGE
# B3: IDI2-AS1 (peptide)
# chain: RKVVKAHASLHGARL
# B4: LINC00881_2 (peptide)
# chain: DRGSGMTGKGGNGFC
# Legend:
# Assay in all cases: PRISMA enrichment of interactor (LFQ) in peptide spot vs all other peptide spots (log2 fold change); higher = stronger / more specific binding of the interactor to the peptide
# [1] = molecular target: COPA, P53621
# Description: (§1)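 PRISMA: 15-aa overlapping tiles (offset 8 aa) of 60 microproteins, plus SOS1/GLUT1 control peptides, were spot-synthesized on cellulose membranes in triplicate. Membranes were incubated with benzonase-treated HEK293T lysate, and bound proteins were identified by LC-MS/MS with LFQ. Enrichment is the log2 fold change of each protein in one spot versus all other spots. Only interactors passing the significance cutoff are listed.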
# [2] = molecular target: NUP160, Q12769
# Description: as §1
# [3] = molecular target: PAICS, P22234
# Description: as §1
# [4] = molecular target: RPS17, P08708
# Description: as §1
# [5] = molecular target: COPE, O14579
# Description: as §1
# [6] = molecular target: FARSA, Q9Y285
# Description: as §1
# [7] = molecular target: HMGA1, P17096
# Description: as §1
# [8] = molecular target: L2HGDH, Q9H9P8
# Description: as §1
# [9] = molecular target: MRPS15, P82914
# Description: as §1
# [10] = molecular target: MYO1D, O94832
# Description: as §1
# [11] = molecular target: PABPN1, Q86U42
# Description: as §1
# [12] = molecular target: PIGK, Q92643
# Description: as §1
# [13] = molecular target: SPTY2D1, Q68D10
# Description: as §1
# [14] = molecular target: STAT3, P40763
# Description: as §1
# [15] = molecular target: COPS5, Q92905
# Description: as §1
# [16] = molecular target: EDC3, Q96F86
# Description: as §1
# [17] = molecular target: FIS1, Q9Y3D6
# Description: as §1
# [18] = molecular target: GBF1, Q92538
# Description: as §1
# [19] = molecular target: KTN1, Q86UP2
# Description: as §1
# [20] = molecular target: MYO15A, Q9UKN7
# Description: as §1
# [21] = molecular target: ORC1, Q13415
# Description: as §1
# [22] = molecular target: ORC3, Q9UBD5
# Description: as §1
# [23] = molecular target: SCYL2, Q6P3W7
# Description: as §1
# [24] = molecular target: STIP1, P31948
# Description: as §1
# [25] = molecular target: TTF2, Q9UNY4
# Description: as §1
# [26] = molecular target: ZBTB11, O95625
# Description: as §1
# [27] = molecular target: ZNF24, P17028
# Description: as §1
# [28] = molecular target: COX6B1, P14854
# Description: as §1
# [29] = molecular target: DBR1, Q9UK59
# Description: as §1
# [30] = molecular target: DDX49, Q9Y6V7
# Description: as §1
# [31] = molecular target: ETFB, P38117
# Description: as §1
# [32] = molecular target: NAA35, Q5VZE5
# Description: as §1
# [33] = molecular target: NXT1, Q9UKK6
# Description: as §1
# [34] = molecular target: PRKCSH, P14314
# Description: as §1
# [35] = molecular target: RBM34, P42696
# Description: as §1
# [36] = molecular target: SEMG1, P04279
# Description: as §1
binder,measurement,setting,value
B1,PRISMA enrichment of interactor (log2),[1],4.97
same,PRISMA enrichment of interactor (log2),[2],5.08
same,PRISMA enrichment of interactor (log2),[3],5.87
same,PRISMA enrichment of interactor (log2),[4],5.91
B2,PRISMA enrichment of interactor (log2),[5],5.4
same,PRISMA enrichment of interactor (log2),[6],5.01
same,PRISMA enrichment of interactor (log2),[7],5.21
same,PRISMA enrichment of interactor (log2),[8],4.66
same,PRISMA enrichment of interactor (log2),[9],5.93
same,PRISMA enrichment of interactor (log2),[10],4.47
same,PRISMA enrichment of interactor (log2),[11],6.13
same,PRISMA enrichment of interactor (log2),[12],4.66
same,PRISMA enrichment of interactor (log2),[13],5.33
same,PRISMA enrichment of interactor (log2),[14],4.52
B3,PRISMA enrichment of interactor (log2),[15],4.29
same,PRISMA enrichment of interactor (log2),[16],4.25
same,PRISMA enrichment of interactor (log2),[17],3.96
same,PRISMA enrichment of interactor (log2),[18],4.79
same,PRISMA enrichment of interactor (log2),[19],4.68
same,PRISMA enrichment of interactor (log2),[20],5.31
same,PRISMA enrichment of interactor (log2),[21],5.81
same,PRISMA enrichment of interactor (log2),[22],3.9
same,PRISMA enrichment of interactor (log2),[23],6.45
same,PRISMA enrichment of interactor (log2),[24],5.72
same,PRISMA enrichment of interactor (log2),[25],5.79
same,PRISMA enrichment of interactor (log2),[26],5.18
same,PRISMA enrichment of interactor (log2),[27],4.57
B4,PRISMA enrichment of interactor (log2),[28],5.87
same,PRISMA enrichment of interactor (log2),[29],5.44
same,PRISMA enrichment of interactor (log2),[30],5.47
same,PRISMA enrichment of interactor (log2),[31],5.97
same,PRISMA enrichment of interactor (log2),[32],4.56
same,PRISMA enrichment of interactor (log2),[33],5.88
same,PRISMA enrichment of interactor (log2),[34],4.49
same,PRISMA enrichment of interactor (log2),[35],6
same,PRISMA enrichment of interactor (log2),[36],4.38

# Reprinted at random: 2 entries already listed
binder,measurement,setting,value
B2,PRISMA enrichment of interactor (log2),[7],5.21
B4,PRISMA enrichment of interactor (log2),[32],4.56
